Reference: PubChem BioAssay AID1053208 (Peter MacCallum Cancer Centre, 2014)
Screen: 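Synthetic lethal interactions between gene loss and doxorubicin in osteosarcoma cells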 (primary screen). Cells: mouse osteosarcoma cells, early-passage culture from an engineered mouse model of fibroblastic bone tumour. Knock-down reagent: siRNA pool against mouse genes, 40 nM. Timing: about 120 h (48 h before drug, then 72 h with drug). Treatment: doxorubicin 100 nM for 72 h, roughly 30-40% inhibitory dose. Read-out: 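Luminescent ATP signal taken as viability with or without 100 nM doxorubicin for 72 h; mean of two wells set against non-targeting siRNA and turned into robust z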. Scale: viability z-score with doxorubicin: higher = more viable cells under doxorubicin; viability z-score without drug: higher = more viable cells with knock-down alone. Active means: 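a pool counts as active when its viability z-score with doxorubicin is -2 or below and its z-score without drug lies between -2 and 2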.
Shown is a random part of about 17,000 deposited reagents. In the full data, 788 (4.7%) are marked active. 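Calls rest on z-score classes alone; an extra cut-off of viability at most 70% of control was not applied to them.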 Further read-outs or replicates are left out here.

gene symbol	combined z-score class	viability z-score with doxorubicin	viability z-score without drug	activity call
Gsk3b (glycogen synthase kinase 3 beta)	no change with or without drug	-0.56	-1.35	inactive
Ccl7 (C-C motif chemokine ligand 7)	no change with or without drug	1.12	0.51	inactive
Itgb3bp (integrin beta 3 binding protein (beta3-endonexin))	no change with or without drug	1.57	0.84	inactive
Kirrel3 (kirre like nephrin family adhesion molecule 3)	no change with or without drug	-0.34	-0.17	inactive
Adamts2 (ADAM metallopeptidase with thrombospondin type 1 motif 2)	no change with or without drug	0	0.51	inactive
Cabp4 (calcium binding protein 4)	no change with or without drug	-0.56	-0.51	inactive
Bbs7 (Bardet-Biedl syndrome 7)	no change with or without drug	0.45	0.34	inactive
Cpne9 (copine family member IX)	no change with or without drug	-0.11	-0.51	inactive
Or52h7 (olfactory receptor family 52 subfamily H member 7)	no change with or without drug	-0.22	-0.17	inactive
Olfm2 (olfactomedin 2)	no change with or without drug	0.45	0	inactive
Pde7b (phosphodiesterase 7B)	no change with or without drug	0.34	-0.84	inactive
Prrc2b (proline-rich coiled-coil 2B)	no change with or without drug	1.35	1.18	inactive
Patl2 (protein associated with topoisomerase II homolog 2 (yeast))	low cell count with doxorubicin only	-2.7	0.34	active
Ddit3 (DNA-damage inducible transcript 3)	no change with or without drug	0.67	0.51	inactive
Ptp4a3 (protein tyrosine phosphatase 4a3)	no change with or without drug	1.69	0.51	inactive
C630007C17RIK	no change with or without drug	0.9	0.84	inactive
Degs2 (delta 4-desaturase, sphingolipid 2)	no change with or without drug	-0.79	0.51	inactive
Rab5if (RAB5 interacting factor)	low cell count with doxorubicin only	-2.25	-0.84	active
Myf5 (myogenic factor 5)	no change with or without drug	1.12	0.17	inactive
Ormdl1 (ORM1-like 1 (S. cerevisiae))	low cell count with doxorubicin only	-2.02	-0.51	active
1700020M10Rik (RIKEN cDNA 1700020M10 gene)	no change with or without drug	0	-0.17	inactive
Il15 (interleukin 15)	no change with or without drug	1.57	0.84	inactive
Klhl10 (kelch-like 10)	no change with or without drug	-0.22	1.52	inactive
Acot9 (acyl-CoA thioesterase 9)	no change with or without drug	-1.12	-0.84	inactive
Smim30 (small integral membrane protein 30)	no change with or without drug	0.67	1.18	inactive
Aamp (angio-associated migratory protein)	no change with or without drug	0.45	0.84	inactive
Bsdc1 (BSD domain containing 1)	no change with or without drug	1.35	1.52	inactive
Rnf8 (ring finger protein 8)	no change with or without drug	1.57	0.84	inactive
Klhl25 (kelch-like 25)	no change with or without drug	0.22	-0.17	inactive
Ppfia2	no change with or without drug	-0.45	1.18	inactive
Or6c206 (olfactory receptor family 6 subfamily C member 206)	high cell count without drug only	0.45	2.19	inactive

Sorted by “viability z-score without drug” (ascending): some entries from above
gene symbol	combined z-score class	viability z-score with doxorubicin	viability z-score without drug	activity call
Gsk3b (glycogen synthase kinase 3 beta)	no change with or without drug	-0.56	-1.35	inactive
Kirrel3 (kirre like nephrin family adhesion molecule 3)	no change with or without drug	-0.34	-0.17	inactive
Ccl7 (C-C motif chemokine ligand 7)	no change with or without drug	1.12	0.51	inactive
Itgb3bp (integrin beta 3 binding protein (beta3-endonexin))	no change with or without drug	1.57	0.84	inactive

Next entries follow.
gene symbol	combined z-score class	viability z-score with doxorubicin	viability z-score without drug	activity call
B3gnt7	no change with or without drug	1.12	1.35	inactive
Tmem62 (transmembrane protein 62)	no change with or without drug	0.9	0.51	inactive
Ciita (class II transactivator)	no change with or without drug	-0.22	1.18	inactive
Mat1a (methionine adenosyltransferase 1A)	no change with or without drug	0.22	-0.84	inactive
Ap3s2 (adaptor-related protein complex 3, sigma 2 subunit)	no change with or without drug	1.35	1.35	inactive
Tex13b (testis expressed 13B)	no change with or without drug	1.35	-0.17	inactive
Nrk (Nik related kinase)	no change with or without drug	0.67	0.51	inactive
Ubr1 (ubiquitin protein ligase E3 component n-recognin 1)	high cell count without drug only	0.9	2.36	inactive
2810025M15Rik (RIKEN cDNA 2810025M15 gene)	no change with or without drug	-0.22	0	inactive
Ythdc1 (YTH domain containing 1)	low cell count with doxorubicin only	-3.15	-0.17	active
Mx1 (MX dynamin-like GTPase 1)	no change with or without drug	0.45	-0.34	inactive
Or6k8 (olfactory receptor family 6 subfamily K member 8)	no change with or without drug	0.56	0.51	inactive
Paf1 (Paf1, RNA polymerase II complex component)	low cell count with doxorubicin only	-2.25	1.18	active
C1qtnf12 (C1q and tumor necrosis factor related 12)	no change with or without drug	0.22	0.84	inactive
Slc25a13	no change with or without drug	0	-0.67	inactive
Tmem198 (transmembrane protein 198)	no change with or without drug	0.11	0	inactive
Sephs1 (selenophosphate synthetase 1)	no change with or without drug	-0.9	-0.17	inactive
Megf11 (multiple EGF-like-domains 11)	no change with or without drug	0.9	0.51	inactive
Brd8 (bromodomain containing 8)	no change with or without drug	-0.34	-0.67	inactive
